Experimental data reported in PMC5758883.
These are yes or no findings as the source states them, for the method shown. Some binding calls cover weakened binding; strength is not graded here.

Amino acid sequences for entries named in this document (tags omitted). Chains listed by the source or under a name are the forms on record and can include a tag or linker. Residues count along the entry.
RNase E 603–850 with a C-terminal hexahistidine tag (P21513, residues 603-850): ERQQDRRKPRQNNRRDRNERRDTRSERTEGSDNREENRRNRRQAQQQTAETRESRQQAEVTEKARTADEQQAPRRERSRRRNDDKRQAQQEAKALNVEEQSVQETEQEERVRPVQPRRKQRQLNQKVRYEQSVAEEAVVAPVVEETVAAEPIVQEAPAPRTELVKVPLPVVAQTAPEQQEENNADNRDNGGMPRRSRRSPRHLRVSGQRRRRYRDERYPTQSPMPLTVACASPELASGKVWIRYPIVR
N-terminal hexahistidine-tagged AR2-enolase binding site (EBS), residues 782–850 of RNase E (P21513, residues 782-850): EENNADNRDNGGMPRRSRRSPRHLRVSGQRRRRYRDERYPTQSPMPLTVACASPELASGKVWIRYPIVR
UniProt P0A6P9: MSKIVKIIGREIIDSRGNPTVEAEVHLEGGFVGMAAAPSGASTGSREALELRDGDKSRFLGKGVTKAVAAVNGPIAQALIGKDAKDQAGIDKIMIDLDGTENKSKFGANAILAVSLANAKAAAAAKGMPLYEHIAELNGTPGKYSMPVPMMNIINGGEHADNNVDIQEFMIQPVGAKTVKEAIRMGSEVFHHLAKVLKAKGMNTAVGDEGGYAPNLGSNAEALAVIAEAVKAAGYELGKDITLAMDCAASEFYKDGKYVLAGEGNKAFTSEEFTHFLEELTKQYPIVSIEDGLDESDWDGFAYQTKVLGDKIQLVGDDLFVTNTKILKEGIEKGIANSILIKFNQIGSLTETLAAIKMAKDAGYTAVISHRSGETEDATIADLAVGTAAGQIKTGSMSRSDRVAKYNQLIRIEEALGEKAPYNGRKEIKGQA

Assays:
[1] = biological target: RNase E 603–850 with a C-terminal hexahistidine tag (Escherichia coli) (UniProt P21513); experiment: native MS; native ESI and ion-mobility mass spectrometry of the co-purified ternary and binary complexes; both purified
[2] = biological target: N-terminal hexahistidine-tagged AR2-enolase binding site (EBS), residues 782–850 of RNase E (Escherichia coli) (UniProt P21513); experiment: crystal structure; co-expressed, co-purified AR2–EBS/enolase complex; 0.2 M potassium thiocyanate, 0.1 M Bis-Tris propane pH 8.5, 20% PEG 3350, 18°C; 2.0 Å; both purified
[3] = biological target: RNase E 603–850 with a C-terminal hexahistidine tag (Escherichia coli) (UniProt P21513); experiment: native gel or EMSA; recognition core, Hfq and MicC equimolar at 250 nM; 50 mM Tris–HCl pH 7.5, 100 mM NaCl, 50 mM KCl, 10 mM MgCl2, 5 mM DTT, 5–10 min at 4°C; 8% native polyacrylamide gel; shifted bands excised and analysed by LC-MS/MS (emPAI); both purified

binding [1]: binds
binding [2]: binds
binding [3]: binds
Substance: enolase (from UniProt P0A6P9 1-432) (enzyme)
